# According to PubChem BioAssay AID2284359 (EPA ToxCast):
# Inconclusive means that the source gave no clear call. Such entries were picked first, then a sample of the others. Potencies of inconclusive entries are doubtful fits and often do not repeat. The source made the active and inactive calls. The calls were made as follows: active = hit-call score of the fitted dose curve at least 0.9, where 1 is the maximum; inconclusive = response in the unintended direction; inactive = score below 0.9.
# Experiment: ATG_M_06_EcoTox2: Attagene TRANS-FACTORIAL EcoTox-2 HepG2 Assay for M06 Transcription Factor (Internal Marker)
# Description: ATG_EcoTox2 is a cell-based, multiplexed assay created by modifying the existing Attagene TRANS-FACTORIAL system to include a panel of nuclear receptors from some or all the following species: human (Homo sapiens), african clawed frog (Xenopus laevis), rainbow trout (Oncorhynchus mykiss), japanese medaka (Oryzias latipes), and zebrafish (Danio rerio). The ECOTOX2-FACTORIAL format uses HepG2, a human liver cell line, with measurements taken at 24 hours after chemical dosing in a 24-well plate. ATG_M_06_EcoTox2 is one of 29 assay components calculated in the ATG_EcoTox2 assay. It is designed to make measurements of mRNA induction, a form of inducible reporter, as detected with fluorescence intensity signals by Reverse transcription polymerase chain reaction (RT-PCR) and Capillary electrophoresis technology.The assay endpoint ATG_M_06_EcoTox2 was analyzed in the positive analysis fitting direction relative to DMSO as the negative control and baseline of activity. Using a type of inducible reporter, measures of mRNA for gain-of-signal activity can be used to understand the background control at the transcription factor-level as they relate to the gene. Furthermore, this assay endpoint can be referred to as a secondary readout, because this assay has produced multiple assay endpoints where this one serves a background control function. […]
# Human liver HepG2 cells are transiently transfected with multiple reporter transcription units (MRTUs) in 6-well plates using FuGene 6 reagent (Roche; 3 ml FuGene/1 mg DNA). […] A major difference between the CIS and TRANS system is that in CIS activities of endogenous TFs are measured, whereas the TRANS assay evaluates changes in activities of exogenous, chimeric NR-Gal4 proteins. […] The fragments were purified using Qiaquick PCR columns (Qiagen), analyzed on an ABI 3130xL genetic analyzer (Applied Biosystems) with peak positions identified by using a set of X-rhodamine (ROX)-labeled MapMarker1000 molecular weight standards (BioVentures). […]
SMILES,outcome,AC50
O=C(O)C(F)(F)C(F)(F)C(F)(F)C(F)(F)C(F)(F)C(F)(F)C(F)(F)F,inactive,
O=S(=O)(O)C(F)(F)C(F)(F)C(F)(F)C(F)(F)C(F)(F)C(F)(F)F,inactive,
[Cl][Sn]([c]1ccccc1)([c]1ccccc1)[c]1ccccc1,,inconclusive: 1390 nM
